Earlier results in patent US20260315437A1, “COMBINATION OF NAB-SIROLIMUS AND AN ESTROGEN SUPPRESOR FOR USE IN THE TREATMENT OF HORMONE-DEPENDENT CANCERS” (AADI Bioscience, Inc., priority 2023, published 2026).
Where two headings read alike, the source gives them in different places. For at least one compound, name, drawing or mass did not settle the structure.

Legend:
mTORC1 [1] = conditions: HEK293 cells; cited from earlier work
mTORC1 [2] = conditions: HUVEC cells; mixed units nM to μM printed in value; cited from earlier work

Compound: COC(=O)Nc1ccc(-c2nc(N3CCOCC3)c3cnn(C4CCN(C(=O)OC)CC4)c3n2)cc1 [WYE-354]
- concentration inhibiting mTORC1 (mTORC1 [1]): 0.2 μM-5 μM
- concentration inhibiting mTORC1 (mTORC1 [2]): 10 nM-1 μM
